According to PubChem BioAssay AID248 (DTP/NCI, 2004):
The list shows only some results of the screen, not a fair sample: it is rich in T/C values a quarter to a half above the control, in often repeated tests (any T/C) and in doses without a T/C. Other doses and runs of a compound stand elsewhere. T/C gives the treated animals as a percentage of the vehicle group. Some entries give survivors of the animals treated and no T/C: the source files T/C as zero there, which appears to mark a toxic dose or a test without result, not a measured value. Some survivor counts are full or nearly so, which does not show that the dose was tolerated: survival well below the control is almost never listed, so the zero probably covers shortened survival too. Counts of survivors are from the toxicity check (mostly the fifth day) where no day follows; animals may have died later. Schedules are NCI's codes, read here as Q, the interval in days (D) or hours (H), X, the number of doses. For survival time, the PubChem record calls one and a half times the control and up active, and a quarter to a half above the control has no call in these data; cut-offs in other NCI protocols can differ. Some entries were tested several times; the results are listed from low to high. Additions like (4×) give the number of equal values in this list. Some T/C values are followed by the survivors on the day toxicity was checked, most often the fifth; without a count, all were alive then.

System: L1210 leukemia ip in BDF1 mice, survival T/C
Test: NCI In Vivo Anticancer Drug Screen. Data for tumor model L1210 Leukemia (intraperitoneal) in B6D2F1 (BDF1) mice
Conditions: T/C endpoint: mean survival time, higher T/C = longer survival
[1] = dose: 100.0 mg/kg/injection, schedule: Q01DX009 (ip), vehicle: saline with Tween-80
[2] = dose: 200.0 mg/kg/injection, schedule: Q01DX009 (ip), vehicle: saline with Tween-80
[3] = dose: 100.0 mg/kg/injection, schedule: Q01DX001 (ip), vehicle: carboxymethylcellulose (CMC)
[4] = dose: 200.0 mg/kg/injection, schedule: Q01DX001 (ip), vehicle: carboxymethylcellulose (CMC)
[5] = dose: 400.0 mg/kg/injection, schedule: Q01DX001 (ip), vehicle: carboxymethylcellulose (CMC)
[6] = dose: 400.0 mg/kg/injection, schedule: Q01DX001 (ip), vehicle: other
[7] = dose: 100.0 mg/kg/injection, schedule: Q01DX001 (ip), vehicle: saline
[8] = dose: 400.0 mg/kg/injection, schedule: Q04DX003 (ip), vehicle: Klucel (hydroxypropylcellulose) (HPC)
[9] = dose: 100.0 mg/kg/injection, schedule: Q04DX003 (ip), vehicle: Klucel (hydroxypropylcellulose) (HPC)
[10] = dose: 50.0 mg/kg/injection, schedule: Q01DX009 (ip), vehicle: carboxymethylcellulose (CMC)
[11] = dose: 100.0 mg/kg/injection, schedule: Q01DX009 (ip), vehicle: carboxymethylcellulose (CMC)
[12] = dose: 200.0 mg/kg/injection, schedule: Q01DX009 (ip), vehicle: carboxymethylcellulose (CMC)
[13] = dose: 400.0 mg/kg/injection, schedule: Q04DX003 (ip), vehicle: saline with Tween-80

## Nc1n[n+](=O)c2ccccc2n1O
dose: 9.38 mg/kg/injection, schedule: Q01DX001 (ip), vehicle: other
  survivor count: 0 of 6
dose: 18.75 mg/kg/injection, schedule: Q01DX001 (ip), vehicle: other
  survivor count: 0 of 6
dose: 37.5 mg/kg/injection, schedule: Q01DX001 (ip), vehicle: other
  survivor count: 0 of 6
dose: 75.0 mg/kg/injection, schedule: Q01DX001 (ip), vehicle: other
  survivor count: 1 of 6
dose: 150.0 mg/kg/injection, schedule: Q01DX001 (ip), vehicle: other
  survivor count: 0 of 6
dose: 300.0 mg/kg/injection, schedule: Q01DX001 (ip), vehicle: other
  survivor count: 0 of 6

## CC(C)(O)CC(O)(C(F)(F)F)C(F)(F)F
dose: 50.0 mg/kg/injection, schedule: Q01DX009 (ip), vehicle: other
  survivor count: 3 of 6
dose: 100.0 mg/kg/injection, schedule: Q01DX009 (ip), vehicle: other
  survivor count: 3 of 6
[1]
  survivor count: 3 of 6
[2]
  survivor count: 1 of 6
dose: 400.0 mg/kg/injection, schedule: Q01DX009 (ip), vehicle: saline with Tween-80
  survivor count: 0 of 6

## CCCN(CCC)C(=O)CCN1CC1
dose: 50.0 mg/kg/injection, schedule: Q01DX001 (ip), vehicle: carboxymethylcellulose (CMC)
  survivor count: 2 of 4
dose: 80.0 mg/kg/injection, schedule: Q01DX001 (ip), vehicle: carboxymethylcellulose (CMC)
  survivor count: 0 of 4
[3]
  survivor count: 1 of 4
[4]
  survivor count: 0 of 4
[5]
  survivor count: 0 of 4

## O=C(C[n+]1ccccc1)N/N=C/c1cccc([N+](=O)[O-])c1
[1]
  survivor count: 3 of 3
[2]
  survivor count: 0 of 3

## CN(C)c1ccc([N+](=O)[O-])cc1[N+](=O)[O-]
[6]
  T/C: 125 % of control [5 of 6 alive]

## NC(=O)c1cccs1
dose: 80.0 mg/kg/injection, schedule: Q01DX001 (ip), vehicle: saline
  survivor count: 1 of 4
[7]
  survivor count: 2 of 4
dose: 200.0 mg/kg/injection, schedule: Q01DX001 (ip), vehicle: saline
  survivor count: 0 of 4
dose: 400.0 mg/kg/injection, schedule: Q01DX001 (ip), vehicle: saline
  survivor count: 0 of 4

## O=C(O)c1ccccc1C(=O)Nc1ccc([N+](=O)[O-])cc1Cl
[8]
  survivor count: 3 of 6

## COC(=O)C(=O)CC(=O)c1cccc(Cl)c1
dose: 100.0 mg/kg/injection, schedule: Q04DX002 (ip), vehicle: Klucel (hydroxypropylcellulose) (HPC)
  survivor count: 3 of 3
dose: 200.0 mg/kg/injection, schedule: Q04DX002 (ip), vehicle: Klucel (hydroxypropylcellulose) (HPC)
  survivor count: 2 of 3
dose: 400.0 mg/kg/injection, schedule: Q04DX002 (ip), vehicle: Klucel (hydroxypropylcellulose) (HPC)
  survivor count: 0 of 3

## CC[N+](CC)(CCOC(=O)C1C2CC3OC(=O)C1C3C2)Cc1ccccc1 (centres undefined)
dose: 200.0 mg/kg/injection, schedule: Q04DX003 (ip), vehicle: saline
  survivor count: 0 of 3
dose: 400.0 mg/kg/injection, schedule: Q04DX003 (ip), vehicle: saline
  survivor count: 0 of 3

## CC(=O)Nc1ccc(/C=N\NC(=O)N/N=C/c2ccc(NC(C)=O)cc2)cc1
dose: 200.0 mg/kg/injection, schedule: Q04DX003 (ip), vehicle: Klucel (hydroxypropylcellulose) (HPC)
  survivor count: 6 of 6

## O=C1c2ccccc2C(=O)N1c1c[nH]c(=O)[nH]c1=O
[9]
  survivor count: 2 of 6

## C/C(=N/NC(N)=S)c1ccco1
[7]
  survivor count: 4 of 4

## CC(=O)Nc1ccc(OCCOC(=O)Nc2ccc(Cl)c(C(F)(F)F)c2)cc1
[10]
  T/C: 89, 95, 101 % of control
  survivor count: 3 of 3
[11]
  T/C: 93 and 94 % of control
  survivor count: 6 of 6
dose: 100.0 mg/kg/injection, schedule: Q04DX002 (ip), vehicle: carboxymethylcellulose (CMC)
  T/C: 93, 94 (2×), 95 % of control
[12]
  T/C: 86, 87, 90 % of control
  survivor count: 6 of 6

## CCCCCCN(CCCCCC)CCC(=O)Nc1ccc(S(=O)(=O)c2ccc(NC(=O)CCN(CCCCCC)CCCCCC)cc2)cc1
[3]
  survivor count: 2 of 4
[4]
  survivor count: 2 of 4
[5]
  survivor count: 0 of 4

## CCCCOC(=O)c1ccc(NC(=O)Nc2ccccc2)cc1
dose: 200.0 mg/kg/injection, schedule: Q04DX003 (ip), vehicle: saline with Tween-80
  survivor count: 3 of 6
[13]
  survivor count: 2 of 6

## CCN(CC)CCN(CCN(CC)CC)c1c(OC)cccc1OC
dose: 75.0 mg/kg/injection, schedule: Q01DX001 (ip), vehicle: acetone
  survivor count: 3 of 6
dose: 150.0 mg/kg/injection, schedule: Q01DX001 (ip), vehicle: acetone
  survivor count: 0 of 6
dose: 300.0 mg/kg/injection, schedule: Q01DX001 (ip), vehicle: acetone
  survivor count: 0 of 6

## Cc1ccc(NC(=O)NCCCl)cc1NC(=O)NCCCl
[8]
  survivor count: 6 of 6

## O=C(Nc1ccc2ncccc2c1)Nc1ccc2ncccc2c1
[9]
  survivor count: 6 of 6

## COC(=O)CCC1([N+](=O)[O-])CCCCC1
dose: 25.0 mg/kg/injection, schedule: Q01DX009 (ip), vehicle: saline with Tween-80
  T/C: 146 % of control

## O=c1c2cccc3cccc(c32)c2nc3ccccc3n12
[13]
  survivor count: 3 of 6

## COc1cccc(/C(C#N)=C\O)c1
dose: 400.0 mg/kg/injection, schedule: Q04DX002 (ip), vehicle: saline with Tween-80
  survivor count: 3 of 3

## O=C(Nc1cccc(Cl)c1)c1cc(N=Nc2ccc([N+](=O)[O-])cc2Cl)ccc1O
[8]
  survivor count: 0 of 6

## O=CC1=C(Cl)c2ccccc2SC1
[6]
  survivor count: 0 of 4
